Laboratory results reported in patent US7662851B2, “Use of specific cyklolignans” (Axelar AB, priority 2001, dated 2010).
For at least one compound, name, drawing or mass did not settle the structure. Some results were stated once for a whole list of compounds, not compound by compound.

Legend:
[1] = test system: leukemia cell lines (K562/S, K562/Vcr30, HL60/0 and HL60/Nov); test: Leukemia cell viability, summary over the four cell lines; assay type: cell-based, human; settings: 72 h, read-out: IC50 values for cell viability, range over leukemia cell lines
Procedure: The human chronic myeloid leukemia K562/S and K562/Vcr30 lines and the acute myeloid leukemia cell lines HL60/0 and HL60/Nov were obtained from ATCC. The K562/S and […] are wild type (non-resistant) cells, whereas K562/Vcr30 and HL60/Nov are cytostatic-resistant sublines. All leukemia cell lines were cultured in RPMI 1640 medium supplemented with 10% fetal bovine serum and with 2 mM L-glutamine, benzylpenicillin (100 U/ml) and streptomycin (100 μg/ml). The cells were grown in tissue culture flasks maintained at 95% air/5% CO2 atmosphere at 37° C. in a humidified incubator. For the experiments cells were cultured in 60-mm plastic dishes or 96-well plastic plates.
Cell proliferation kit II (Roche Inc.) is based on colorimetric change of the yellow tetrazolium salt XTT in orange formazan dye by the respiratory chain of viable cells (Roehm, N W, et al., J Immunol Methods 142:257-265, 1991). Cells seeded at a concentration of 5000/well in 100 μl medium in a 96-well plate were treated with different drugs in the given concentration. […] After 4 h the formazan dye is quantified using a scanning multiwell spectrophotometer with a 495-nm filter. The absorbance is directly correlated with the number of viable cells. The standard absorbance curve was drawn by means of untreated cells seeded at a concentration of from 1000 to 10 000 cells/well with an increasing rate of 1000 cells/well. […]

[2] = Local toxicity, subcutaneous osmotic pumps in nude mice; assay type: in vivo; settings: subcutaneous osmotic pump, 7 days, 7 mg/kg/d
Procedure: Control mice were treated with the solvent. 3-6 animals were treated in each group.
The first set of experiments was carried out to investigate possible local and systemic toxic effects of podophyllotoxin, deoxypodophyllotoxin and picropodophyllin on nude mice. In the first experiment osmotic pumps loaded with either drug-free solvent, podophyllotoxin (0.25 mg), deoxypodophyllotoxin (0.25 mg) or picropodophyllin (0.25 mg) were implanted subcutaneously in the flank region. The drugs are delivered subcutaneously with a constant flow of 0.6 μl/h over 7 days. The volume of the pumps was 100 μl. After 7 days the mice were killed and the skin and subcutaneous tissue adjacent to the outlet of the pumps were analyzed and scored for tissue reactions by an experienced pathologist. There were 3 mice in each group.

Compound	IC50 [1] [nM]	Local toxicity: effects on skin and subcutaneous tissue [2]
COc1cc([C@@H]2c3cc4c(cc3C=C3COC(=O)[C@H]32)OCO4)cc(OC)c1OC [Alpha-apopicro, α-apopicropodophyllin]	10 to 50	–
COc1cc([C@@H]2c3cc4c(cc3C[C@H]3COC(=O)[C@@H]32)OCO4)cc(OC)c1OC [Deoxypodophyllotoxin, deoxypodophyllotoxin]	–	+
β-apopicropodophyllin [Beta-apopicro]	10 to 50	–
